Protein sequences can lack the tags named with them.
Key:
[1] = biological target: T1, C179DDD S893D,T894D,T898D (Homo sapiens) (UniProt Q9ULV3); experiment: EMSA; details: 0.66 nM RNA, yeast tRNA 0.1 mg/ml; 10 mM Tris-HCl pH 7, 30 mM NaCl, 2.5 mM MgCl2, 0.1% IGEPAL CA-630, 0.1 mg/ml yeast tRNA, 1.5% RNaseOUT, 0.2 mM EDTA, 0.2 mM DTT, 30 C 20 min; 0.8% agarose/TBE at 4 C; recombinant protein; protein details: N-terminal GST removed with PreScission protease; label: digoxigenin (DIG-11-UTP, internal); probe letters rebuilt from the primers and the genome
T1 sequence (looked up, limits assumed): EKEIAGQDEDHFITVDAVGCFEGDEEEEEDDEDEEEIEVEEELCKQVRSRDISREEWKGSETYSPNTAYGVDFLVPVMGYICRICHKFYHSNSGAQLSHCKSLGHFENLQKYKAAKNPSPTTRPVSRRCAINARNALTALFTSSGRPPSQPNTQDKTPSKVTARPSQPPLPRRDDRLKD

[2] = biological target: T2, C179Δtail del861-898 (Homo sapiens) (UniProt Q9ULV3); experiment: EMSA; details: 0.66 nM RNA, yeast tRNA 0.1 mg/ml; 10 mM Tris-HCl pH 7, 30 mM NaCl, 2.5 mM MgCl2, 0.1% IGEPAL CA-630, 0.1 mg/ml yeast tRNA, 1.5% RNaseOUT, 0.2 mM EDTA, 0.2 mM DTT, 30 C 20 min; 0.8% agarose/TBE at 4 C; recombinant protein; residues 720-860; protein details: N-terminal GST removed with PreScission protease; label: digoxigenin (DIG-11-UTP, internal); probe letters rebuilt from the primers and the genome; counted as no binding
T2 sequence (looked up): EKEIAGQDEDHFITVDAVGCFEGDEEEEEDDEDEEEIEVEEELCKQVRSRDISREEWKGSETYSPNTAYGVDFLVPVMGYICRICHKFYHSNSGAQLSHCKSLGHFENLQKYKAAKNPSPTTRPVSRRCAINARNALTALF

In the case of “GGGAGCACUAGCUAUGGCUCUCUGUUUUAUCUAUCUGGUUGCUAUUUCUCUUAGCUUUUCUUUCACUCCUGCCUUUCGUGACUCCCCUUUGGGUCACAUGUUGCAUGCAUCCCUCUCUUUUUCUUGUGCUCACCCCACUUGUUCUUUGUUCAAGUUCUCUUUGUCAGUCCAUUUCAGUUUUCUUUCUGCUGCUUCUAUCCUUAGUGAAUUCUUGUUUACAUUUCUUCCCUGCCUUUCUUGGGCCACUUUCUCUGUUUUCUUUUGUAUUUGUGUCUCUUUGCUAUUGGUGGAUUUCUUAUCUCAGCAUCAUUCUGUUGCUUUGUGUUUGCUUGUGUUUCUAUCUUCUACUUUCCUCCUUUCUGUUCACUUUGAGCAUUUCAUCUCUUUACAAGUCUGUGUCUCUCUUGUAUUCUAAAGUAAUCCUUUCUUGGAUGUUUCUUUGUAUGUACAUGUGCGUGUGUGCAUGUGUGUUAUGUG [Xist repeat E RNA probe]”, the binding signal (% probe shifted at 5 µM protein) [1] is reported as 54 and the binding signal (% probe shifted at 5 µM protein) [2] is reported as 2.

Source: paper PMC12862363, “AURKB-driven dissolution of CIZ1–RNA assemblies from the inactive X chromosome in mitosis” (Nucleic Acids Research, 2026)
